Reference: PubChem BioAssay AID504786 (Drosophila RNAi Screening Center, 2011)
Aim: 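Positive regulators of HIF-driven reporter output in Drosophila cells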 (primary screen). System: Drosophila S2 cells with a stable HIF luciferase reporter. Reagent: long dsRNA against Drosophila genes, about 0.2 µg dsRNA per well of a 384-well plate. Time to read-out: three days of knock-down, then 20 h of DFO before reading. Treatment: desferrioxamine (DFO) at 100 µM, an iron chelator that mimics hypoxia, for 20 h. Measurement: 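HIF reporter luminescence in cells given 100 µM DFO for 20 h, using the mouse ldh-a hypoxia-response element, scored as per-plate z-scores; higher means greater loss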. Scale: z-score: higher = stronger loss of HIF reporter signal.
In all, the deposit lists about 21,000 reagents; shown is an unselected part of those that have a named target and a result. 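Primary screen; positive scores mean lost reporter signal, so the sign may be inverted from the usual convention.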 A plus sign joins genes that one reagent is predicted to hit.

gene knocked down,dsRNA,"z-score, replicate 1","z-score, replicate 2","z-score, replicate 3","z-score, replicate 4"
CG5171,DRSC02823,-0.2,-0.3,,
Rrp42,DRSC07161,0.2,1.3,,
Smvt,DRSC15426,-0.3,0.1,,
CG6893,DRSC10742,-0.2,0.3,,
nht,DRSC01976,9.3,-0.4,-0.4,0
tea,DRSC06110,-0.4,-0.7,,
tea,DRSC06236,-0.3,-0.6,,
hth,DRSC16967,-0.4,-0.5,,
CG31533,DRSC13018,-0.4,-0.5,,
app,DRSC09159,-0.3,-0.5,,
app,DRSC10246,-0.4,-0.2,,
app,DRSC10526,-0.2,-0.2,,
CG42818 + Ca-Ma2d,DRSC01963,-0.4,0.4,,
Fkbp14,DRSC04615,-0.3,-0.5,,
CG8195,DRSC07103,-0.3,-0.4,,
CG32212 + hpRNA:CR33940,DRSC09618,0.4,1.3,,
rdgA,DRSC17863,-0.1,0.1,,
rdgA,DRSC18036,-0.1,1,,
rdgA,DRSC18827,-0.3,-0.4,,
CG11693,DRSC14353,-0.2,-0.2,,
CG17224,DRSC00489,-0.1,-0.1,,
htl,DRSC16968,-0.2,-0.1,,
CG14598,DRSC12541,-0.1,0.3,,
CG17646,DRSC00507,-0.2,-0.3,,
CngA,DRSC06580,-0.1,-0.3,,
CngA,DRSC07362,-0.3,-0.4,,
Mst57Da,DRSC16744,-0.6,-0.2,,
CG34288,DRSC13564,-0.6,0.1,,
CG15450,DRSC20522,,-0.5,4.2,-0.3
CG13331,DRSC06366,-0.4,-0.3,,
CG14518,DRSC14870,-0.3,-0.4,,
CG2712,DRSC18589,-0.3,-0.2,,
Mal-A6,DRSC07233,-0.2,-0.1,,
Svip,DRSC08982,-0.1,-0.3,,
ems,DRSC16941,-0.4,-0.5,,
CG9003,DRSC07317,-0.4,-0.9,,
CG9265,DRSC03178,-0.2,-0.1,,
CG9265,DRSC03179,-0.2,0,,
ppk12,DRSC04086,0.1,0.1,,
CG5504,DRSC04701,-0.2,-0.5,,
Tsp66E,DRSC09683,-0.3,-0.2,,
jub,DRSC19367,0.7,0.6,,
Glys,DRSC16130,-0.4,-0.3,,
CG11779,DRSC14384,0.4,0.9,,
CG14043,DRSC02368,-0.3,-0.5,,
CG11893,DRSC14429,-0.5,-0.7,,
CG34263,DRSC07866,-0.4,-0.2,,
Smn,DRSC10223,-0.1,0.1,,
LSm3,DRSC15920,-0.3,-0.5,,
Zwilch,DRSC15376,-0.2,-0.2,,
trus,DRSC15772,-0.3,0,,
Setx,DRSC10859,0.1,0.7,,
CG32695,DRSC17975,0,-0.2,,
Reg-5,DRSC04647,-0.2,0,,
CIA30,DRSC16266,-0.4,-0.4,,
Rift,DRSC14330,-0.3,-0.5,,
al,DRSC00799,-0.2,0,,
fal,DRSC11087,-0.1,-0.1,,
CG30340,DRSC05167,-0.1,-0.1,,
CG31371,DRSC15079,-0.4,-0.4,,
CG15199,DRSC19646,-0.3,-0.5,,
CG10104,DRSC05964,0,0,,
AANATL2,DRSC03227,-0.2,-0.4,,
COX7A,DRSC16514,2.4,2.3,,
Pxn,DRSC08685,-0.1,0.1,,
pcs,DRSC07042,-0.4,-0.4,,
Obp73a,DRSC09907,-0.2,0,,
CG3626,DRSC18318,-0.2,-0.4,,
G9a,DRSC18619,-0.3,-0.4,,
CG31807,DRSC01550,-0.1,-1.2,,
CG17821,DRSC06696,-0.3,0.5,,
Sap47,DRSC16850,-0.2,-0.2,,
CG5174,DRSC06920,-0.2,-0.1,,
CG8112,DRSC16377,-0.3,-0.6,,
CG32344,DRSC08578,-0.3,-0.3,,
Gip,DRSC18667,0.2,-0.3,,
CG30054,DRSC05354,-0.2,-0.1,,
CG31051,DRSC15034,0.7,0.2,,
SK,DRSC17387,0,0,,
SK,DRSC17751,-0.3,0.3,,
SK,DRSC17887,-0.3,0,,
SK,DRSC17888,-0.2,0.1,,
SK,DRSC18353,-0.3,-0.5,,
